Inconclusive results, whose numbers are uncertain, are shown with a selection of clear calls. For part of these data: Where the call is inconclusive, the potency comes from a doubtful curve fit. Active and inactive are the calls of the source. The calls were made as follows: active = hit-call score of the fitted dose curve at least 0.9, where 1 is the maximum; inconclusive = response in the unintended direction; inactive = score below 0.9.
How the values were obtained:
[1] = system: guinea pig Muscarinic, Peripheral (Mperiperal) Receptor, Non-selective Binding, gene 100379235; assay: NVS_GPCR_gMPeripheral_NonSelective: NovaScreen (NVS) G Protein-Coupled Receptor Assay for guinea pig Muscarinic, Peripheral (Mperiperal) Receptor, Non-selective Binding (AID 2283250)
Outline: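 Guinea pig bladder membranes, radioligand binding read 1 h after dosing by filter scintillation counting; loss of signal vs DMSO. Primary duplicate screen at 25 uM, then concentration-response up to 50 uM.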

Sequences of proteins named here, by UniProt entry; tags and fusion partners are left off. A change or cut given only in a name is not applied to a line headed by its entry.
UniProt P30542, whole entry, looked up: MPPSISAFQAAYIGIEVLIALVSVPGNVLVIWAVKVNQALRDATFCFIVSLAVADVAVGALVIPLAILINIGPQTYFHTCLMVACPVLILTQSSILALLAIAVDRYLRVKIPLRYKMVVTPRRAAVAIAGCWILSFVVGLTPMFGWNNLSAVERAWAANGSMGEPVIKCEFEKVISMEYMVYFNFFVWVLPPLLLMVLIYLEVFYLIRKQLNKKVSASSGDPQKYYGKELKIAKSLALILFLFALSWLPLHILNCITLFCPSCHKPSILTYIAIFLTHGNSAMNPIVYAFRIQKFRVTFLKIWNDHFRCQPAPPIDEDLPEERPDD
UniProt P25101, whole entry, looked up: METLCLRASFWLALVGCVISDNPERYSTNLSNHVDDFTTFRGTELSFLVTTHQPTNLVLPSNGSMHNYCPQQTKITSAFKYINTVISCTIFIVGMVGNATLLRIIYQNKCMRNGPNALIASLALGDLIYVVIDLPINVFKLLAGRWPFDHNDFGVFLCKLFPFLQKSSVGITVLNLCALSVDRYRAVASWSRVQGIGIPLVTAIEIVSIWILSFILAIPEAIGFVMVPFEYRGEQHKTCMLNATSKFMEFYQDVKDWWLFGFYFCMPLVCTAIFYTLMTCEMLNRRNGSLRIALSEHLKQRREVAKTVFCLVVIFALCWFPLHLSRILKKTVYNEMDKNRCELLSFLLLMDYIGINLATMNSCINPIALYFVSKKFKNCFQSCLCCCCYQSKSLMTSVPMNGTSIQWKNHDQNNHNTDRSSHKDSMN
UniProt P34969, whole entry, looked up: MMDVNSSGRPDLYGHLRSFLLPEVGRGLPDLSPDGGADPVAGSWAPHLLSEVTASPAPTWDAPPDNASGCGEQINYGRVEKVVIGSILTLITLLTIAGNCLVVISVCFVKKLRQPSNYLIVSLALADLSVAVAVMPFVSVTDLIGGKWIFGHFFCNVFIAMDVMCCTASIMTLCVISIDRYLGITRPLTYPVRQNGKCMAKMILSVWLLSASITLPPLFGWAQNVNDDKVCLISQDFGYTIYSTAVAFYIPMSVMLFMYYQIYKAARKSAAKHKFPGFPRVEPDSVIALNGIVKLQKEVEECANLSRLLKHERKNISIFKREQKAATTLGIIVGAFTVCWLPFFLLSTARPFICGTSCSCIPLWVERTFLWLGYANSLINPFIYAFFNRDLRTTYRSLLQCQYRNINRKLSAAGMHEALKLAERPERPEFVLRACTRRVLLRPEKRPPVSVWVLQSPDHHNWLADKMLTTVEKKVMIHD
UniProt P50406, whole entry, looked up: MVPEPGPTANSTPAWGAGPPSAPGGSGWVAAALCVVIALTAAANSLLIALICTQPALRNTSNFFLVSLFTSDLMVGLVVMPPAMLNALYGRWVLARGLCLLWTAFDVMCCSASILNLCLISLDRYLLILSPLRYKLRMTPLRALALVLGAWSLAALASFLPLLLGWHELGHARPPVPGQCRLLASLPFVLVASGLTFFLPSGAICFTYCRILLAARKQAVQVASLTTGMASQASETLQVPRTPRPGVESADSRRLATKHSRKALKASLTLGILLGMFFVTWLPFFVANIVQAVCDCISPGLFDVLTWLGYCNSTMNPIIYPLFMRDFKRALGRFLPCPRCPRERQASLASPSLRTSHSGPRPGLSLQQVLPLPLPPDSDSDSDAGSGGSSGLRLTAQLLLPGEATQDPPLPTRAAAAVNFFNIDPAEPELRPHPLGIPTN
UniProt P13945: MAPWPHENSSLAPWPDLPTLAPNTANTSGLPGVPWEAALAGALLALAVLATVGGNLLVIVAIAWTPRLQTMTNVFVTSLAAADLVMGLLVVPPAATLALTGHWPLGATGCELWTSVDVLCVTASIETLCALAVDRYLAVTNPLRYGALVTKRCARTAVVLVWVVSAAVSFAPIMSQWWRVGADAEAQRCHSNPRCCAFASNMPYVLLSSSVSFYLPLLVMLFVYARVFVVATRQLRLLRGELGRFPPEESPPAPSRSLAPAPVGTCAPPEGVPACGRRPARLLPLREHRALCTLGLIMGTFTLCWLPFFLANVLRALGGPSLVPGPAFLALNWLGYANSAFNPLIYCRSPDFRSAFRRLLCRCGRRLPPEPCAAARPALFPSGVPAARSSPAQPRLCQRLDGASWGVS
UniProt P28223, whole entry, looked up: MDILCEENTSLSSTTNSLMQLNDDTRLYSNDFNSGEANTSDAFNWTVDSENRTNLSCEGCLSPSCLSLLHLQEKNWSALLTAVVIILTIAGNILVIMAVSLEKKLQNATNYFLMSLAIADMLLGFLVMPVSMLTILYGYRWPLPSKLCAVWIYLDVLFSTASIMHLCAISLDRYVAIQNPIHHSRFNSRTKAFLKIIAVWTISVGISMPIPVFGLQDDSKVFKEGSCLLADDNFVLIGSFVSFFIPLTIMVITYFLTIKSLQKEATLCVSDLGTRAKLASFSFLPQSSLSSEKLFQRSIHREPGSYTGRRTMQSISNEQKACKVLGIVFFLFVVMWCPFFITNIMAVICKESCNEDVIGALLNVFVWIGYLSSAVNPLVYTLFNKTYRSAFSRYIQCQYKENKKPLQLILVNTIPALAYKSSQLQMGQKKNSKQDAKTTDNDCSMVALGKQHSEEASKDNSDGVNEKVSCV
UniProt P47898, whole entry, looked up: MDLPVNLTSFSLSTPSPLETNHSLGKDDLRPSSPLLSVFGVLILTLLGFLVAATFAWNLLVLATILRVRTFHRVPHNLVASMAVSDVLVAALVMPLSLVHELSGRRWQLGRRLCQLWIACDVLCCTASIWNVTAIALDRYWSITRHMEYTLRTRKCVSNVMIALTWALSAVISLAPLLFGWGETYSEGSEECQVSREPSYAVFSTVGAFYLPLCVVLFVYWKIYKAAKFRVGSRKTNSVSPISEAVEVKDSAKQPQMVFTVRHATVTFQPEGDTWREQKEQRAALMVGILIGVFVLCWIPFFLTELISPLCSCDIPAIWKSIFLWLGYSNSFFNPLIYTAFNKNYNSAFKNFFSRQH
UniProt P08913, whole entry, looked up: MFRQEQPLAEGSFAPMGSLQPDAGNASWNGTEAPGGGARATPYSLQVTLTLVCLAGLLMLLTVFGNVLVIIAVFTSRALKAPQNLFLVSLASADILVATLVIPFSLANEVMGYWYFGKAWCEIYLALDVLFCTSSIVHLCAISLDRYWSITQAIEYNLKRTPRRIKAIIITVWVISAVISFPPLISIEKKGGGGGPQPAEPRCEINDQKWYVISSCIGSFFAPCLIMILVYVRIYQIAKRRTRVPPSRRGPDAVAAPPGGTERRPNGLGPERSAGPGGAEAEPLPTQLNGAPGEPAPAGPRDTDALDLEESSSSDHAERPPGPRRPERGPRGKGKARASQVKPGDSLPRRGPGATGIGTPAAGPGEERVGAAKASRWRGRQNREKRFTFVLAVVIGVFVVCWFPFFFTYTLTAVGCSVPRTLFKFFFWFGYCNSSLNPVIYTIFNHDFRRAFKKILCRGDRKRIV
UniProt P08588, whole entry, looked up: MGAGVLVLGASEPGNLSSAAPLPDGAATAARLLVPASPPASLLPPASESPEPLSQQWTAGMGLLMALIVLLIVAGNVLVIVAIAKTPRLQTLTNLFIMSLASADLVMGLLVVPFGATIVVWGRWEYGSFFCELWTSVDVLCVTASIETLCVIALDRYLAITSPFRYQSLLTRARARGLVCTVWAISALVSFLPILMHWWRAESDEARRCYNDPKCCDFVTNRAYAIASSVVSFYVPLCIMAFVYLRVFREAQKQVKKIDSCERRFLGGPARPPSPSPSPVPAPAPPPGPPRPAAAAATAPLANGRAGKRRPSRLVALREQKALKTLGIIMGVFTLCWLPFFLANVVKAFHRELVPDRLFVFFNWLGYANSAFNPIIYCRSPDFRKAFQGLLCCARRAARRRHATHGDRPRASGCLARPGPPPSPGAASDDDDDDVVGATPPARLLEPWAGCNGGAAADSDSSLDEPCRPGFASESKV
UniProt P24530: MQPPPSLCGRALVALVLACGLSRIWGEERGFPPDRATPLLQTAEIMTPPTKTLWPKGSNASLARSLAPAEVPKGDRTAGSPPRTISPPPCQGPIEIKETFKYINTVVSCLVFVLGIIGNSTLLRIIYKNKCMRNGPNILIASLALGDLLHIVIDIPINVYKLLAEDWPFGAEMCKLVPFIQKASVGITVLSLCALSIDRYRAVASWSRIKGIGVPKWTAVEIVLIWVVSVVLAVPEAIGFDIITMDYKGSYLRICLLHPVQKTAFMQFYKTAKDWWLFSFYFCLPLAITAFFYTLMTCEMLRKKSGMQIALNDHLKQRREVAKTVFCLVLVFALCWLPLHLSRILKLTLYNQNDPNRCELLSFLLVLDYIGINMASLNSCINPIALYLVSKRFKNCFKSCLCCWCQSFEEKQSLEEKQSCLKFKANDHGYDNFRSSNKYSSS
UniProt P14416, whole entry, looked up: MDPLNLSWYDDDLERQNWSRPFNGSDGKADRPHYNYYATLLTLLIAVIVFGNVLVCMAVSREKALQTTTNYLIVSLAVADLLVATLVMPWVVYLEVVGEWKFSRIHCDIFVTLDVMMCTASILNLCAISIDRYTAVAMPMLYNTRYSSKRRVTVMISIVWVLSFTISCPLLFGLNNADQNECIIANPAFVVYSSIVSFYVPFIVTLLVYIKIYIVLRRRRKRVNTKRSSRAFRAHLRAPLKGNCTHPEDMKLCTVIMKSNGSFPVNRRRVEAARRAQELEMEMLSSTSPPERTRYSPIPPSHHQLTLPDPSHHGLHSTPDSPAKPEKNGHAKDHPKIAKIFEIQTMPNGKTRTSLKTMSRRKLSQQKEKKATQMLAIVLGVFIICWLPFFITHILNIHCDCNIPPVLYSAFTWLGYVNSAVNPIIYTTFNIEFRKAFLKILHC
UniProt P18825, whole entry, looked up: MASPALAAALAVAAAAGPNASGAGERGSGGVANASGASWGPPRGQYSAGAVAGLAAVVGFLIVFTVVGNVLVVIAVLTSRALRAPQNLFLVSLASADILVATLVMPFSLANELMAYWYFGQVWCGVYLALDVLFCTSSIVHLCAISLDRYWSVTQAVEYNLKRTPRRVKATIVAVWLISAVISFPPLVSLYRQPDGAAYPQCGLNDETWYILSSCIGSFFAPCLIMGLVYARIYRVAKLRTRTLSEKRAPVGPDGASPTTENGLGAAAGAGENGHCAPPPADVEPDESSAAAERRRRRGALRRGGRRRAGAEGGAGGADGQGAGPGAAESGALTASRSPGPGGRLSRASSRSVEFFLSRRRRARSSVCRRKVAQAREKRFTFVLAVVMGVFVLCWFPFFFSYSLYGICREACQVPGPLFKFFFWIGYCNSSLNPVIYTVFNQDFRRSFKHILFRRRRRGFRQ
UniProt P21917, whole entry, looked up: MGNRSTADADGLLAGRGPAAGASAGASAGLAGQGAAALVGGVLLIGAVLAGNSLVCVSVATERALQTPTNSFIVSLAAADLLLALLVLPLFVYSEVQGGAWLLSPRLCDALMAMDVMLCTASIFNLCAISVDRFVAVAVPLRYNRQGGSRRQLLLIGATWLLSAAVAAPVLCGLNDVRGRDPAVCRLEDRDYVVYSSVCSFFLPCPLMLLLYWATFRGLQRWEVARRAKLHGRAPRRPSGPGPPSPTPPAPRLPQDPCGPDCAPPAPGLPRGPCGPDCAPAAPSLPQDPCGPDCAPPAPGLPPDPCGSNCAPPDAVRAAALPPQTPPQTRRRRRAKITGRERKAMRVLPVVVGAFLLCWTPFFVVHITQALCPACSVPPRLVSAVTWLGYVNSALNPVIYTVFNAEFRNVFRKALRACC

[2] = molecular target: human Adenosine A1 Receptor (AdoRA1), ADORA1 (gene 134) (UniProt P30542); assay: NVS_GPCR_hAdoRA1: NovaScreen (NVS) G Protein-Coupled Receptor Assay for human Adenosine A1 Receptor (AdoRA1) (AID 2283254)
Outline: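 Radioligand competition binding on human cortical membranes, 1 h after compound addition; bound radioactivity read by filtration and scintillation counting. Loss of signal versus DMSO baseline scored as displacement; primary screen duplicate at 25 uM, actives retested in concentration series.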

[3] = molecular target: human Endothelin Receptor Type A (ETA), EDNRA (gene 1909) (UniProt P25101); assay: NVS_GPCR_hETA: NovaScreen (NVS) G Protein-Coupled Receptor Assay for human Endothelin Receptor Type A (ETA) (AID 2283265)
Outline: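 Cell-free radioligand displacement using SH-SY5Y-derived protein, 3 h incubation, filter-based scintillation counting. Primary screen in duplicate at 25 uM; actives then run in concentration-response up to 50 uM; loss of binding fitted versus DMSO.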

[4] = molecular target: human Adenosine A2a Receptor (AdoRA2a), ADORA2A (gene 135) (UniProt P29274); assay: NVS_GPCR_hAdoRA2a: NovaScreen (NVS) G Protein-Coupled Receptor Assay for human Adenosine A2a Receptor (AdoRA2a) (AID 2283256)
Outline: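 Radioligand displacement on HEK293-derived membrane protein, cell-free; filter-based scintillation counting 1.5 hours after dosing, loss of signal vs DMSO. Single-point duplicate screen at 25 uM, actives retested in concentration series.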

[5] = molecular target: human Serotonin, 5-Hydroxytryptamine Receptor 7 (5HT7), HTR7 (gene 3363) (UniProt P34969); assay: NVS_GPCR_h5HT7: NovaScreen (NVS) G Protein-Coupled Receptor Assay for human Serotonin, 5-Hydroxytryptamine Receptor 7 (5HT7) (AID 2283255);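 also: hits reduce specific radioligand binding relative to DMSO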
Outline: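 Radioligand displacement on membranes from CHO cells expressing human 5HT7, 1 h incubation, filter-based scintillation counting. Primary screen used a single 25 uM concentration in duplicate; actives were followed up in concentration series.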

[6] = molecular target: Type-1 angiotensin II receptor (Homo sapiens) (UniProt P30556); assay: NVS_GPCR_hAT1: NovaScreen (NVS) G Protein-Coupled Receptor Assay for human Angiotensin II receptor type 1 (AT1) (AID 2283263)
Outline: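 Membranes from KAN-TS cells; radioligand competitive displacement, 3 h, filtration and scintillation counting. Single-point duplicate screen at 25 uM, then concentration-response up to 50 uM for hits; loss of signal fitted versus DMSO.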

[7] = molecular target: human Serotonin, 5-Hydroxytryptamine Receptor 6 (5HT6), HTR6 (gene 3362) (UniProt P50406); assay: NVS_GPCR_h5HT6: NovaScreen (NVS) G Protein-Coupled Receptor Assay for human Serotonin, 5-Hydroxytryptamine Receptor 6 (5HT6) (AID 2283253)
Outline: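 Radioligand binding to 5HT6 in HEK293-derived membranes, cell-free, 1 h after dosing; bound ligand measured by filter-based scintillation counting. Primary screen in duplicate at 25 uM; actives retested in concentration series.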

[8] = molecular target: Beta-2 adrenergic receptor (Homo sapiens) (UniProt P07550); assay: NVS_GPCR_hAdrb2: NovaScreen (NVS) G Protein-Coupled Receptor Assay for human Adrenergic, Beta 2 Receptor (Adrb2) (AID 2283261)
Outline: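 Filter-based radioligand binding using receptor prepared from CHO cells, 1 h incubation, scintillation counting. Primary screen in duplicate at 25 uM, actives retested in concentration series; loss of binding relative to DMSO.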

[9] = molecular target: human Adrenergic, Beta 3 Receptor (Adrb3), ADRB3 (gene 155) (UniProt P13945); assay: NVS_GPCR_hAdrb3: NovaScreen (NVS) G Protein-Coupled Receptor Assay for human Adrenergic, Beta 3 Receptor (Adrb3) (AID 2283262)
Outline: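 Membranes from SK-N-MC cells pretreated with isoproterenol and 8-bromo-cAMP were used in a radioligand competitive displacement binding assay. Binding was read by filter-based scintillation counting 1 hour after dosing. Primary screening was in duplicate at 25 uM, with concentration series in follow-up.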

[10] = molecular target: human Serotonin, 5-Hydroxytryptamine Receptor 2A (5HT2A), HTR2A (gene 3356) (UniProt P28223); assay: NVS_GPCR_h5HT2A: NovaScreen (NVS) G Protein-Coupled Receptor Assay for human Serotonin, 5-Hydroxytryptamine Receptor 2A (5HT2A) (AID 2283249)
Outline: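 Human cortex membranes, cell-free radioligand binding; filter-based scintillation read 1.5 h after dosing. Duplicate screen at 25 uM first; displacement of specific binding (loss of signal) versus DMSO.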

[11] = molecular target: human Serotonin, 5-Hydroxytryptamine Receptor 5A (5HT5A), HTR5A (gene 3361) (UniProt P47898); assay: NVS_GPCR_h5HT5A: NovaScreen (NVS) G Protein-Coupled Receptor Assay for human Serotonin, 5-Hydroxytryptamine Receptor 5A (5HT5A) (AID 2283251)
Outline: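 Cell-free radioligand displacement binding on HEK293-derived membrane protein, 1 h incubation, filter-based scintillation counting. Primary screen in duplicate at 25 uM, actives followed in concentration series; loss of signal fitted versus DMSO.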

[12] = molecular target: human Adrenergic, Alpha 2A Receptor (Adra2A), ADRA2A (gene 150) (UniProt P08913); assay: NVS_GPCR_hAdra2A: NovaScreen (NVS) G Protein-Coupled Receptor Assay for human Adrenergic, Alpha 2A Receptor (Adra2A) (AID 2283257)
Outline: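 Radioligand filter-binding was run on HT29-derived membranes, cell-free, read by scintillation counting 1 h after dosing. Primary screening was in duplicate at 25 uM, with concentration series in follow-up. Loss of signal versus DMSO indicates displacement.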

[13] = molecular target: human Adrenergic, Beta 1 Receptor (Adrb1), ADRB1 (gene 153) (UniProt P08588); assay: NVS_GPCR_hAdrb1: NovaScreen (NVS) G Protein-Coupled Receptor Assay for human Adrenergic, Beta 1 Receptor (Adrb1) (AID 2283258)
Outline: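 Cell-free radioligand displacement on receptor from human neuroepithelioma cells; 2 h after dosing, filter-based scintillation counting. Primary screen in duplicate at 25 uM, actives retested in concentration series; loss of signal vs DMSO baseline.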

[14] = molecular target: human Endothelin Receptor Type B (ETB), EDNRB (gene 1910) (UniProt P24530); assay: NVS_GPCR_hETB: NovaScreen (NVS) G Protein-Coupled Receptor Assay for human Endothelin Receptor Type B (ETB) (AID 2283267)
Outline: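 Human astrocytoma cell membranes; radioligand competitive binding read by filter scintillation counting 4 hours after dosing. Single-concentration duplicate screen at 25 uM, then singleton concentration-response up to 50 uM; loss of signal versus DMSO.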

[15] = molecular target: human Dopamine Receptor D2 (DRD2), DRD2 (gene 1813) (UniProt P14416); assay: NVS_GPCR_hDRD2s: NovaScreen (NVS) G Protein-Coupled Receptor Assay for human Dopamine Receptor D2 (DRD2) (AID 2283266)
Outline: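 Radioligand displacement used human DRD2 membranes extracted from CHO cells and was read by filter-based scintillation counting after 1.5 hours. Primary screening was in duplicate at 25 uM. Loss of signal versus DMSO was fitted, with concentration series in follow-up.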

[16] = molecular target: human Adrenergic, Alpha 2c Receptor (Adra2C), ADRA2C (gene 152) (UniProt P18825); assay: NVS_GPCR_hAdra2C: NovaScreen (NVS) G Protein-Coupled Receptor Assay for human Adrenergic, Alpha 2c Receptor (Adra2C) (AID 2283259)
Outline: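 Radioligand binding on Sf9-expressed receptor membranes, 1 h after chemical dosing, filter-based scintillation read-out. Loss of binding fitted positively versus DMSO; primary duplicate screen at 25 uM, actives retested in concentration series.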

[17] = molecular target: human Dopamine Receptor D4.4 (DRD4.4), DRD4 (gene 1815) (UniProt P21917); assay: NVS_GPCR_hDRD4.4: NovaScreen (NVS) G Protein-Coupled Receptor Assay for human Dopamine Receptor D4.4 (DRD4.4) (AID 2283264)
Outline: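 Radioligand displacement on human DRD4.4 from CHO-derived membranes, 1 hour incubation, bound counts read by filtration and scintillation. Primary screen in duplicate at 25 uM; actives followed up in concentration series.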

Compound: Nc1ccc(Nc2ccccc2)cc1
- outcome [1]: inactive
- outcome [2]: inactive
- AC50 [3]: active: 6.53 µM

Compound: O=C(c1ccc(O)cc1O)c1ccc(O)cc1O
- outcome [4]: inactive

Compound: NC(=O)Cn1c(=O)cc(CCN2CCN(c3nccc4sccc34)CC2)c2ccc(F)cc21
- AC50 [5]: active: 0.0155 µM

Compound: CCC(C)(C)C1CCC(O)CC1 (stereo not drawn)
- AC50 [2]: inconclusive: 25 µM

Compound: C/C=C\C/C=C/CCCCCCCCOC(C)=O
- AC50 [2]: inconclusive: 6.57 µM

Compound: CCOC(=O)CC(O)(CC(=O)OCC)C(=O)OCC
- AC50 [1]: inconclusive: 4 µM
- AC50 [6]: inconclusive: 25 µM

Compound: NS(=O)(=O)c1cc2c(cc1Cl)NCNS2(=O)=O
- outcome [7]: inactive

Compound: CCCOc1ccc(S(=O)(=O)N2CCN(CC)CC2)cc1-c1nc2c(CC)n(Cc3ccccn3)nc2c(=O)[nH]1
- AC50 [2]: active: 6.54 µM

Compound: CCOC(=O)O[C@H](C)OC(=O)c1ccc2c(c1)cc(C(=O)NC1CCN(C(C)C)CC1)n2Cc1cc(-c2ccc(Cl)s2)on1
- AC50 [1]: active: 16.6 µM
- AC50 [8]: active: 12.9 µM
- AC50 [9]: active: 20 µM

Compound: OCCCCl
- AC50 [4]: inconclusive: 25 µM

Compound: CN(C)C(=O)NC1(c2ccccc2)CCN(CCC[C@]2(c3ccc(Cl)c(Cl)c3)CCCN(C(=O)c3ccccc3)C2)CC1
- outcome [10]: inactive
- outcome [11]: inactive

Compound: Oc1cc2ccccc2c2ccccc12
- outcome [4]: inactive

Compound: O=C(Nc1ccc(Cl)cc1)Nc1ccc(Cl)c(Cl)c1
- AC50 [11]: inconclusive: 25 µM

Compound: O=C(c1ccc(OCCN2CCCCC2)cc1)c1c(-c2ccc(O)cc2)sc2cc(O)ccc12
- outcome [2]: inactive
- AC50 [12]: active: 9.52 µM
- AC50 [13]: active: 10.5 µM

Compound: CCCCCCCC(C)=O
- AC50 [4]: inconclusive: 5.02 µM

Compound: NCC1(Cc2noc(=O)[nH]2)CCCCC1
- AC50 [10]: inconclusive: 46.3 µM
- outcome [3]: inactive
- outcome [14]: inactive

Compound: O=C(N[C@@H](c1ccccc1)[C@@H]1CCCCN1)c1cccc(C(F)(F)F)c1Cl
- outcome [1]: inactive
- outcome [9]: inactive
- outcome [15]: inactive

Compound: N=C(N)c1ccc(OCCCCCOc2ccc(C(=N)N)cc2)cc1
- outcome [11]: inactive
- outcome [15]: inactive

Compound: C[C@]12CC[C@@H]3c4ccc(O)cc4C[C@@H](CCCCCCCCCS(=O)CCCC(F)(F)C(F)(F)F)[C@H]3[C@@H]1CC[C@@H]2O (stereo partly drawn)
- outcome [10]: inactive
- AC50 [6]: inconclusive: 15.5 µM

Compound: O=C(O)c1cccc(C(=O)O)c1
- AC50 [10]: inconclusive: 25 µM

Compound: O=C(O)C1(C(=O)Nc2ccc(Cl)cc2Cl)CC1
- AC50 [10]: inconclusive: 28.5 µM

Compound: CN(Cc1cnc2nc(N)nc(N)c2n1)c1ccc(C(=O)N[C@@H](CCC(=O)O)C(=O)O)cc1
- AC50 [11]: inconclusive: 1.35 µM
- AC50 [5]: inconclusive: 25 µM
- AC50 [4]: active: 9.68 µM
- AC50 [13]: inconclusive: 6.12 µM
- outcome [16]: inactive
- outcome [9]: inactive
- AC50 [3]: inconclusive: 6.59 µM

Compound: C1=CCCC1
- outcome [4]: inactive

Compound: CCCCOC(=O)[C@@H](C)Oc1ccc(Oc2ccc(C(F)(F)F)cn2)cc1
- outcome [5]: inactive

Compound: CC(C)CCOCc1ccccc1
- AC50 [4]: inconclusive: 6.68 µM

Compound: OC1CCC(C2CCCCC2)CC1 (stereo not drawn)
- AC50 [7]: inconclusive: 25 µM

Compound: O=C(OCCCCCCOC(=O)c1ccccc1)c1ccccc1
- AC50 [5]: inconclusive: 0.0877 µM

Compound: CC[C@H](c1ccc(O)cc1)[C@@H](CC)c1ccc(O)cc1
- outcome [5]: inactive
- outcome [9]: inactive

Compound: O=C(O)c1ccccc1C(c1ccc(O)cc1)c1ccc(O)cc1
- AC50 [7]: inconclusive: 25 µM
- AC50 [17]: inconclusive: 25 µM

Compound: COc1ccc2cc(S(=O)(=O)N[C@H](CC(=O)N[C@H](Cc3ccc(CN4[C@H](C)CCC[C@@H]4C)cc3)C(=O)N(C)C(C)C)c3ccc4c(c3)OCO4)ccc2c1
- AC50 [1]: active: 5.48 µM

Compound: CC(=O)OC1CCCCC1
- AC50 [4]: inconclusive: 44.8 µM

Compound: CN(C)C(=O)C1(N2CCCCC2)CCN(CC[C@@]2(c3ccc(Cl)c(Cl)c3)CN(C(=O)c3ccccc3)CCO2)CC1
- AC50 [10]: active: 0.957 µM
- AC50 [5]: active: 3.39 µM

Compound: CCCCCCC(CCCCCCCCCCC(=O)OCC(COC(C)=O)OC(C)=O)OC(C)=O (stereo not drawn)
- AC50 [11]: inconclusive: 12.5 µM
- AC50 [16]: inconclusive: 0.734 µM

Compound: CCCCCOC(=O)COc1cc(N2C(=O)C3=C(CCCC3)C2=O)c(F)cc1Cl
- AC50 [5]: inconclusive: 0.158 µM

Compound: CCCOC(=O)c1cc(O)c(O)c(O)c1
- AC50 [2]: active: 14.4 µM
- AC50 [9]: inconclusive: 44.3 µM

Compound: CN1CCN(c2ccccc2/C=C2\SCCN(c3ccc(Cl)c(Cl)c3)C2=O)CC1
- AC50 [5]: active: 0.0142 µM

Compound: O=C(c1ccccc1)C1CCCCC1
- AC50 [10]: inconclusive: 44.6 µM

Compound: CC(C)(c1ccc(O)cc1)c1ccc(O)cc1
- AC50 [6]: inconclusive: 5.98 µM
